Primary screen of a compound library

Sequences of proteins named here, by UniProt entry; tags and fusion partners are left off. Residues count along the entry.
UniProt P9WPC5, whole entry: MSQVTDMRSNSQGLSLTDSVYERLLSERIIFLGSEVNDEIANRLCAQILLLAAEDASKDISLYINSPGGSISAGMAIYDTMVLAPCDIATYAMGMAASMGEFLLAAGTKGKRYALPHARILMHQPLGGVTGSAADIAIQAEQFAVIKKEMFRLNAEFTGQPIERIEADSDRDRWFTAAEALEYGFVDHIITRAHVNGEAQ
UniProt P9WPC3, whole entry partner: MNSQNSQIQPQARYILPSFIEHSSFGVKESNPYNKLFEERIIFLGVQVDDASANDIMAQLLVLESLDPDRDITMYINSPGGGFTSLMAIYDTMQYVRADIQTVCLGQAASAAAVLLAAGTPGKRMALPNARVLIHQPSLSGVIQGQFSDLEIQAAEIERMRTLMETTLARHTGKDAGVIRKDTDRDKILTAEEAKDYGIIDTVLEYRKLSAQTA
UniProt Q4DA54, 1-478: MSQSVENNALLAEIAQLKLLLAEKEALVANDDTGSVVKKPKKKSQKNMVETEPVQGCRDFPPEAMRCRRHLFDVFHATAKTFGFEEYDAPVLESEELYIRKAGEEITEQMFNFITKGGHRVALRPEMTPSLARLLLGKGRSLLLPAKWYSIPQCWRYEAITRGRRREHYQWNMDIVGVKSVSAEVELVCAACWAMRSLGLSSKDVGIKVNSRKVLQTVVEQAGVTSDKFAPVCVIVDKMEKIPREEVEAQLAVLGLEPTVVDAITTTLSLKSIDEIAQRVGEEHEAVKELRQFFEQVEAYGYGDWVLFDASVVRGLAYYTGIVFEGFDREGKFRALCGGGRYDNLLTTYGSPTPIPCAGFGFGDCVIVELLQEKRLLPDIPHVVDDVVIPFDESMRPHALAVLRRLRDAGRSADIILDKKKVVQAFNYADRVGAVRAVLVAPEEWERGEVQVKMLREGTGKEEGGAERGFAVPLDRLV
UniProt P9WNZ1, whole entry: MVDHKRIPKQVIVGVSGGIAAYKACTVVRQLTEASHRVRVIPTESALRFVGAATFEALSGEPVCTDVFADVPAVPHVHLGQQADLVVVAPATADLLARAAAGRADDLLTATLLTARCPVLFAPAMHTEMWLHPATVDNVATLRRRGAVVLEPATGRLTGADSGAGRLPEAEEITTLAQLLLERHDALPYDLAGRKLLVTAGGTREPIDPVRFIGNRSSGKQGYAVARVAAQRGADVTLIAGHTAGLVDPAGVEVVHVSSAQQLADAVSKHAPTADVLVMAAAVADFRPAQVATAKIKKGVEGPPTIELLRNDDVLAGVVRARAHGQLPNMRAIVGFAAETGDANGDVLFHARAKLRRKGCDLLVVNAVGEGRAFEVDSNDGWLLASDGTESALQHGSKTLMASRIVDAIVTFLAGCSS

The values are deposited in ChEMBL (CHEMBL3988442, “University of Dundee, Small-Polar-MMV Screening Library” (2021)).

ClpP1P2: 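Protease assay of ClpP1P2, read by the AMC dye that it sets free. Target: ClpP1P2, Mycobacterium tuberculosis (UniProt P9WPC5 and UniProt P9WPC3). Compounds at 50 µM. Higher reads as stronger inhibition, judged from the few compounds that gave an IC50. Most other retested compounds had strongly negative values. Of about 69,000 compounds tested this way, about 10 (0.015%) reached 50% or more in at least one test.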
Toxoplasma: 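Assay of Toxoplasma gondii numbers, read through their beta-galactosidase reporter with a colour substrate. Compounds at 10 µM. The record gives no direction; the compounds picked for IC50 retests had high values, so higher reads as fewer parasites. Of about 67,000 compounds tested this way, about 260 (0.38%) reached 50% or more in at least one test.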
Leishmania in macrophages: 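Cell assay of Leishmania donovani living inside macrophages; the read-out is not stated. Tested at 30 µM. The record gives no direction; compounds that gave an IC50 in retests scored well above the rest, so higher reads as stronger inhibition. Of about 69,000 compounds tested this way, about 1,000 (1.5%) reached 50% or more in at least one test.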
TcHisRS: 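Enzyme assay of histidyl-tRNA synthetase; the read-out is not stated. Target: Histidine-tRNA ligase, Trypanosoma cruzi CL Brener (UniProt Q4DA54). Compounds at 30 µM. The record gives no direction; compounds that gave an IC50 in retests scored well above the rest, so higher reads as stronger inhibition. About 69,000 compounds were tested under these conditions; 0.045% (about 31) showed 50% or more at least once.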
CoaBC: 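Enzyme assay of CoaBC with a phosphate dye (Biomol Green) read at 650 nm. Target: Coenzyme A biosynthesis protein CoaBC, Mycobacterium tuberculosis (UniProt P9WNZ1). Concentration: 30 µM. Direction is inferred from only a few compounds that gave an IC50; most scored high, so higher reads as stronger inhibition. Most strong results did not repeat in a second test. About 67,000 compounds were tested under these conditions; 0.06% (about 40) showed 50% or more at least once.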

Values are the deposited “Percent Effect”, in %.
How 0% and 100% were set is not recorded. Most values in the screen are low, and negative values occur.
This is an unselected part of the compounds tested.
Two or more numbers in one place are separate tests of the same structure; such repeats can differ widely.
A dash means the value is not listed here; it may have been measured.

Compound	ClpP1P2	Toxoplasma	Leishmania in macrophages	TcHisRS	CoaBC
Cc1cc(CN2CCC(CNC(=O)c3noc4c3CCCC4)C2)[nH]n1 (centres unmarked)	-6.258%	-6.107%	-14.54%	-2.174%	15.42%
c1csc(COC[C@H]2CCC[C@]23CN(Cc2ccoc2)CCO3)n1	-7.287%	-36.33%	-3.073%	6.863%	5.75%
O=C(CN(Cc1ccccc1)CC1CCOCC1)NC(=O)NC1CC1	-8.772%	14.03%	-4.724%	4.959%	-3.226%
Cn1nc(C(=O)N2CCOCC2)cc1C(=O)Nc1ncc(Cl)cc1Cl	-9.073%	-6.821%	-5.139%	3.509%	5.434%
CC(C)CN1CCc2[nH]cnc2C12CCN(C(=O)c1ccnn1C)CC2	-5.671%	-	36.49%	18.39%	10.46%
CC(C)c1nc(CN2CCCC(Cn3cncn3)C2)cs1 (centres unmarked)	-6.608%	28.02%	11.52%	6.686%	8.964%
CN(C)CC(=O)N1Cc2nc(C(=O)NCc3ccccc3)oc2C1	13.57%	6.652%	-27.71%	2.956%	-2.538%
CC(C)n1c(C(=O)N2CCCC2)nc2c1CCN(c1ncccn1)C2	1.832%	5.556%	2.631%	5.063%	-
Cc1ccc(CN(C)c2cc(N3CCCC3CO)ncn2)s1 (centres unmarked)	-1.578%	1.163%	-62.14%	7.182%	6.696%
O=C(O)C(F)(F)F.O=C(O)C(F)(F)F.O[C@@H]1CCN(CC2CCOC2)[C@H]1Cc1cccnc1 (some centres unmarked)	-	-0.5851%	-3.539%	-	-
CCn1ncc2c1C(COCC1CC1)CN(c1ccc(C)nn1)C2.O=C(O)C(F)(F)F.O=C(O)C(F)(F)F (centres unmarked)	-	1.927%	4.303%	-	-
[H][C@@]12COC[C@]1([H])[C@@H](OCC)CN2C(=O)c1ccc2c(c1)OCO2	-	2.394%	4.088%	-	-
CN(CC(N)=O)C(=O)c1csc(Br)c1	16.83%	14.53%	0.8667%	8.808%	8.763% & 22.33%
CC(C)(C)CC(=O)N1C[C@H]2CCN[C@H]2C1	-10.1%	-	-	1.676%	1.576%
Cc1c(-c2ccccc2)nc2c(c(C)c(C)n2CCN(C)C)c1N	13.49%	39.63%	99.06%	3.627%	10.42%
CC(Cc1cccc(F)c1)C(=O)NS(=O)(=O)c1ccc(F)cc1 (centres unmarked)	16.49%	3.372%	5.076%	6.173%	-0.1227%
CN(C)C(=O)C1SCCc2ccccc21 (centres unmarked)	-10.23%	-2.835%	23.92%	-2.463%	2.532%
Cc1nn(C)c(C)c1S(=O)(=O)N(CC(N)=O)CC(C)C	1.564%	-16.49%	-2.964%	8.434%	6.683%
Cc1noc(C)c1CN(C)C(=O)Cn1c(=O)n(C)c2ccccc21	-5.868%	1.936%	12.61%	9.135%	1.908%
CC(C)c1ccc(O)c(C(=O)N2CCN(Cc3cscn3)CC2)c1	4.282%	9.585%	35.64%	-1.916%	15.18%
Cc1ccc(CNC(=O)c2ccc(S(=O)(=O)N3C[C@@H]4C[C@H]3CN4)cc2)o1	-0.4514%	-	-	4.124%	-31.87%
Cc1nc(CCCNC(=O)[C@H]2CNC[C@@H](C(=O)N3CCCC3)C2)sc1C	-15.44%	4.091%	-5.467%	5.025%	1.454%
COc1cc(OC)cc(-c2cc(CN)nc3ccnn23)c1	14.61%	-	-	5.65%	-0.1205%
CC(C)c1ncncc1C(=O)NCCN1CCCCCC1	4.337%	19.4%	-57.89%	3.509%	11.14%
CC(=O)NS(=O)(=O)c1ccc(F)c(C(F)(F)F)c1	-0.2033%	0.7375%	0.5845%	7.179%	1.148%
Cc1cc(C)c2nc(CN3CC[C@@H](O)C3)cc(O)c2c1	-7.043%	5.77%	18.78%	10%	-4.051%
Cc1nn(C)c(N(C)C)c1CNC(C)COc1ccccc1F (centres unmarked)	-5.817%	-16.3%	8.196%	2.857%	0.2389%
CC(C)N(C)C(=O)C1CCN(Cc2cnc3ccccn23)CC1	-8.401%	4.246%	34.94%	4.972%	2.166%
CC(C)c1nn(C)c(N(C)C)c1CNCc1cccc2cccnc12	-20.12%	-	-	6.471%	6.138%
CN1CCc2[nH]nc(C(=O)N3CCC4(CN(C)C(=O)O4)C3)c2C1 (centres unmarked)	-7.943%	21.15%	10.49%	0.5618%	10.26%
Cc1cnn(CC2CCCCN2Cc2cc(C)on2)c1 (centres unmarked)	14.6%	-9.398%	21.56%	1.527%	5.44%
Cc1ccc(CN2CCc3onc(COc4cccnc4)c3C2)s1	-8.975%	-	-	-15.85%	10.03%
Cn1cccc1C(=O)N1CCC2(CCCN2c2ncccn2)CC1	-9.426%	-	-	4.598%	12.02%
COCC(=O)N[C@H](C)c1onc(-c2ccccc2)c1C(=O)O	4.957%	-3.121%	17.54%	1.087%	0.6623%
O=C(CCc1cccs1)N1CCCC1c1noc(C2CC2)n1 (centres unmarked)	-28.12%	-1.907%	19.25%	1.734%	7.28%
[H][C@@]12COC[C@]1(COc1ccc(C#N)cn1)CN(Cc1cnn(C)c1)C2	-	10.54%	26.39%	-	-
Cc1ccc(CN(CCCn2ccnc2)Cc2c[nH]nc2C(C)(C)C)s1	16.52%	-	-	-2.239%	13.38%
Cc1ccc(CN(C)Cc2cnc(N3CCOCC3)s2)o1	-0.5349%	-8.182%	4.55%	5.473%	5.679%
Cc1cc(CN2C[C@@H](C)[C@@]3(CCN(C)C3=O)C2)oc1C	6.901%	-	-	6.329%	-
Cc1nc(CN2CCC3(CC2)NC(=O)CC3c2ccncc2)cs1 (centres unmarked)	-4.395%	-	-	5.288%	8.941%
Cc1ncccc1CNCC1CCN(CC(O)c2ccccc2)CC1 (centres unmarked)	-3.303%	-0.1687%	43.15%	2.632%	3.394%
[H][C@@]12C[C@H](C(=O)Nc3ccccc3)[C@@]([H])(CN(S(=O)(=O)C3CC3)C1)O2	-	-9.875%	5.599%	-	-
CCN(CC)c1ccc(C(=O)N2CCCC(n3cncn3)C2)cn1 (centres unmarked)	-11.39%	8.529%	-41.81%	-1.466%	0.5263%

Once more, the final 6:

Compound	ClpP1P2	Toxoplasma	Leishmania in macrophages	TcHisRS	CoaBC
Cc1ccc(CN(C)Cc2cnc(N3CCOCC3)s2)o1	-0.5349%	-8.182%	4.55%	5.473%	5.679%
Cc1cc(CN2C[C@@H](C)[C@@]3(CCN(C)C3=O)C2)oc1C	6.901%	-	-	6.329%	-
Cc1nc(CN2CCC3(CC2)NC(=O)CC3c2ccncc2)cs1 (centres unmarked)	-4.395%	-	-	5.288%	8.941%
Cc1ncccc1CNCC1CCN(CC(O)c2ccccc2)CC1 (centres unmarked)	-3.303%	-0.1687%	43.15%	2.632%	3.394%
[H][C@@]12C[C@H](C(=O)Nc3ccccc3)[C@@]([H])(CN(S(=O)(=O)C3CC3)C1)O2	-	-9.875%	5.599%	-	-
CCN(CC)c1ccc(C(=O)N2CCCC(n3cncn3)C2)cn1 (centres unmarked)	-11.39%	8.529%	-41.81%	-1.466%	0.5263%